These are yes or no findings as the source states them, for the method shown. Some results given as binding are weak or reduced against the parent protein; the word gives no strength.
Biological target: T1, P-selectin fused to immunoglobulin (Psel-Ig) (UniProt P16109 42-771, limits assumed)
T1 construct: also called spiked P-selectin; not shown: immunoglobulin part of the fusion
T1 sequence (looked up): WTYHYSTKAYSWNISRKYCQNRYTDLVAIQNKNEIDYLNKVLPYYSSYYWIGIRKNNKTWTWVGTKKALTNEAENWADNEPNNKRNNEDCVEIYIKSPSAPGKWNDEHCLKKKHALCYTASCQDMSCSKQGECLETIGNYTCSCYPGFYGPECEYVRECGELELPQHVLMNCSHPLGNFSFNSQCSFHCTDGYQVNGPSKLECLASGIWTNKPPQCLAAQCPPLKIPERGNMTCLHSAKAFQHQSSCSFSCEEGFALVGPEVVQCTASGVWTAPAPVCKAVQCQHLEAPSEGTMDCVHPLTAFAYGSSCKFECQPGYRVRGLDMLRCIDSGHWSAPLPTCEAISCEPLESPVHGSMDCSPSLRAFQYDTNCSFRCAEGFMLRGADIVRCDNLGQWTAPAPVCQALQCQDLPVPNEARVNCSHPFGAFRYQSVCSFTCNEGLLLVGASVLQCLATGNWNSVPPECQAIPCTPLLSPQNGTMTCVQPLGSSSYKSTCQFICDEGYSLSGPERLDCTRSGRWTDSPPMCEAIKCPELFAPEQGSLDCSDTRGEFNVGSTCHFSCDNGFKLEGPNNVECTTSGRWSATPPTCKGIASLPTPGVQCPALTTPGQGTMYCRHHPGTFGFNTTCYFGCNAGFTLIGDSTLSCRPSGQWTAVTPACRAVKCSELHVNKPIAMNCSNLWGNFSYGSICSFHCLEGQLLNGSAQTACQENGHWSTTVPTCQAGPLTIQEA
Experiment: SPR competition, ex vivo patient serum with spiked Psel-Ig

binding: binds
B1: SEG101 (crizanlizumab), humanised monoclonal antibody against human P-selectin (antibody, human IgG2, kappa, V domains shown)
VH: QVQLVQSGAEVKKPGASVKVSCKVSGYTFTSYDINWVRQAPGKGLEWMGWIYPGDGSIKYNEKFKGRVTMTVDKSTDTAYMELSSLRSEDTAVYYCARRGEYGNYEGAMDYWGQGTLVTVSS
VL: DIQMTQSPSSLSASVGDRVTITCKASQSVDYDGHSYMNWYQQKPGKAPKLLIYAASNLESGVPSRFSGSGSGTDFTLTISSLQPEDFATYYCQQSDENPLTFGGGTKVEIKR
notes: also called SelG1; main peak

Source: patent US20220378912A1 (Novartis, published 2022)
